Compound in the test: CCc1cnccc1C(=O)Nc1cc2c(cc1F)NC(=O)CC2
Description: melting temperature shift (DMSO Tm minus MBE1-treated Tm) in cellular thermal proteome profiling; higher = less thermal stabilization by MBE1 (negative = stabilized by MBE1). Conditions: A375.

Chains of the proteins cited; added tags and fusions are not shown. Lines headed by an entry give the natural chain unless they say otherwise; changes in a name come on top.
UniProt O75592: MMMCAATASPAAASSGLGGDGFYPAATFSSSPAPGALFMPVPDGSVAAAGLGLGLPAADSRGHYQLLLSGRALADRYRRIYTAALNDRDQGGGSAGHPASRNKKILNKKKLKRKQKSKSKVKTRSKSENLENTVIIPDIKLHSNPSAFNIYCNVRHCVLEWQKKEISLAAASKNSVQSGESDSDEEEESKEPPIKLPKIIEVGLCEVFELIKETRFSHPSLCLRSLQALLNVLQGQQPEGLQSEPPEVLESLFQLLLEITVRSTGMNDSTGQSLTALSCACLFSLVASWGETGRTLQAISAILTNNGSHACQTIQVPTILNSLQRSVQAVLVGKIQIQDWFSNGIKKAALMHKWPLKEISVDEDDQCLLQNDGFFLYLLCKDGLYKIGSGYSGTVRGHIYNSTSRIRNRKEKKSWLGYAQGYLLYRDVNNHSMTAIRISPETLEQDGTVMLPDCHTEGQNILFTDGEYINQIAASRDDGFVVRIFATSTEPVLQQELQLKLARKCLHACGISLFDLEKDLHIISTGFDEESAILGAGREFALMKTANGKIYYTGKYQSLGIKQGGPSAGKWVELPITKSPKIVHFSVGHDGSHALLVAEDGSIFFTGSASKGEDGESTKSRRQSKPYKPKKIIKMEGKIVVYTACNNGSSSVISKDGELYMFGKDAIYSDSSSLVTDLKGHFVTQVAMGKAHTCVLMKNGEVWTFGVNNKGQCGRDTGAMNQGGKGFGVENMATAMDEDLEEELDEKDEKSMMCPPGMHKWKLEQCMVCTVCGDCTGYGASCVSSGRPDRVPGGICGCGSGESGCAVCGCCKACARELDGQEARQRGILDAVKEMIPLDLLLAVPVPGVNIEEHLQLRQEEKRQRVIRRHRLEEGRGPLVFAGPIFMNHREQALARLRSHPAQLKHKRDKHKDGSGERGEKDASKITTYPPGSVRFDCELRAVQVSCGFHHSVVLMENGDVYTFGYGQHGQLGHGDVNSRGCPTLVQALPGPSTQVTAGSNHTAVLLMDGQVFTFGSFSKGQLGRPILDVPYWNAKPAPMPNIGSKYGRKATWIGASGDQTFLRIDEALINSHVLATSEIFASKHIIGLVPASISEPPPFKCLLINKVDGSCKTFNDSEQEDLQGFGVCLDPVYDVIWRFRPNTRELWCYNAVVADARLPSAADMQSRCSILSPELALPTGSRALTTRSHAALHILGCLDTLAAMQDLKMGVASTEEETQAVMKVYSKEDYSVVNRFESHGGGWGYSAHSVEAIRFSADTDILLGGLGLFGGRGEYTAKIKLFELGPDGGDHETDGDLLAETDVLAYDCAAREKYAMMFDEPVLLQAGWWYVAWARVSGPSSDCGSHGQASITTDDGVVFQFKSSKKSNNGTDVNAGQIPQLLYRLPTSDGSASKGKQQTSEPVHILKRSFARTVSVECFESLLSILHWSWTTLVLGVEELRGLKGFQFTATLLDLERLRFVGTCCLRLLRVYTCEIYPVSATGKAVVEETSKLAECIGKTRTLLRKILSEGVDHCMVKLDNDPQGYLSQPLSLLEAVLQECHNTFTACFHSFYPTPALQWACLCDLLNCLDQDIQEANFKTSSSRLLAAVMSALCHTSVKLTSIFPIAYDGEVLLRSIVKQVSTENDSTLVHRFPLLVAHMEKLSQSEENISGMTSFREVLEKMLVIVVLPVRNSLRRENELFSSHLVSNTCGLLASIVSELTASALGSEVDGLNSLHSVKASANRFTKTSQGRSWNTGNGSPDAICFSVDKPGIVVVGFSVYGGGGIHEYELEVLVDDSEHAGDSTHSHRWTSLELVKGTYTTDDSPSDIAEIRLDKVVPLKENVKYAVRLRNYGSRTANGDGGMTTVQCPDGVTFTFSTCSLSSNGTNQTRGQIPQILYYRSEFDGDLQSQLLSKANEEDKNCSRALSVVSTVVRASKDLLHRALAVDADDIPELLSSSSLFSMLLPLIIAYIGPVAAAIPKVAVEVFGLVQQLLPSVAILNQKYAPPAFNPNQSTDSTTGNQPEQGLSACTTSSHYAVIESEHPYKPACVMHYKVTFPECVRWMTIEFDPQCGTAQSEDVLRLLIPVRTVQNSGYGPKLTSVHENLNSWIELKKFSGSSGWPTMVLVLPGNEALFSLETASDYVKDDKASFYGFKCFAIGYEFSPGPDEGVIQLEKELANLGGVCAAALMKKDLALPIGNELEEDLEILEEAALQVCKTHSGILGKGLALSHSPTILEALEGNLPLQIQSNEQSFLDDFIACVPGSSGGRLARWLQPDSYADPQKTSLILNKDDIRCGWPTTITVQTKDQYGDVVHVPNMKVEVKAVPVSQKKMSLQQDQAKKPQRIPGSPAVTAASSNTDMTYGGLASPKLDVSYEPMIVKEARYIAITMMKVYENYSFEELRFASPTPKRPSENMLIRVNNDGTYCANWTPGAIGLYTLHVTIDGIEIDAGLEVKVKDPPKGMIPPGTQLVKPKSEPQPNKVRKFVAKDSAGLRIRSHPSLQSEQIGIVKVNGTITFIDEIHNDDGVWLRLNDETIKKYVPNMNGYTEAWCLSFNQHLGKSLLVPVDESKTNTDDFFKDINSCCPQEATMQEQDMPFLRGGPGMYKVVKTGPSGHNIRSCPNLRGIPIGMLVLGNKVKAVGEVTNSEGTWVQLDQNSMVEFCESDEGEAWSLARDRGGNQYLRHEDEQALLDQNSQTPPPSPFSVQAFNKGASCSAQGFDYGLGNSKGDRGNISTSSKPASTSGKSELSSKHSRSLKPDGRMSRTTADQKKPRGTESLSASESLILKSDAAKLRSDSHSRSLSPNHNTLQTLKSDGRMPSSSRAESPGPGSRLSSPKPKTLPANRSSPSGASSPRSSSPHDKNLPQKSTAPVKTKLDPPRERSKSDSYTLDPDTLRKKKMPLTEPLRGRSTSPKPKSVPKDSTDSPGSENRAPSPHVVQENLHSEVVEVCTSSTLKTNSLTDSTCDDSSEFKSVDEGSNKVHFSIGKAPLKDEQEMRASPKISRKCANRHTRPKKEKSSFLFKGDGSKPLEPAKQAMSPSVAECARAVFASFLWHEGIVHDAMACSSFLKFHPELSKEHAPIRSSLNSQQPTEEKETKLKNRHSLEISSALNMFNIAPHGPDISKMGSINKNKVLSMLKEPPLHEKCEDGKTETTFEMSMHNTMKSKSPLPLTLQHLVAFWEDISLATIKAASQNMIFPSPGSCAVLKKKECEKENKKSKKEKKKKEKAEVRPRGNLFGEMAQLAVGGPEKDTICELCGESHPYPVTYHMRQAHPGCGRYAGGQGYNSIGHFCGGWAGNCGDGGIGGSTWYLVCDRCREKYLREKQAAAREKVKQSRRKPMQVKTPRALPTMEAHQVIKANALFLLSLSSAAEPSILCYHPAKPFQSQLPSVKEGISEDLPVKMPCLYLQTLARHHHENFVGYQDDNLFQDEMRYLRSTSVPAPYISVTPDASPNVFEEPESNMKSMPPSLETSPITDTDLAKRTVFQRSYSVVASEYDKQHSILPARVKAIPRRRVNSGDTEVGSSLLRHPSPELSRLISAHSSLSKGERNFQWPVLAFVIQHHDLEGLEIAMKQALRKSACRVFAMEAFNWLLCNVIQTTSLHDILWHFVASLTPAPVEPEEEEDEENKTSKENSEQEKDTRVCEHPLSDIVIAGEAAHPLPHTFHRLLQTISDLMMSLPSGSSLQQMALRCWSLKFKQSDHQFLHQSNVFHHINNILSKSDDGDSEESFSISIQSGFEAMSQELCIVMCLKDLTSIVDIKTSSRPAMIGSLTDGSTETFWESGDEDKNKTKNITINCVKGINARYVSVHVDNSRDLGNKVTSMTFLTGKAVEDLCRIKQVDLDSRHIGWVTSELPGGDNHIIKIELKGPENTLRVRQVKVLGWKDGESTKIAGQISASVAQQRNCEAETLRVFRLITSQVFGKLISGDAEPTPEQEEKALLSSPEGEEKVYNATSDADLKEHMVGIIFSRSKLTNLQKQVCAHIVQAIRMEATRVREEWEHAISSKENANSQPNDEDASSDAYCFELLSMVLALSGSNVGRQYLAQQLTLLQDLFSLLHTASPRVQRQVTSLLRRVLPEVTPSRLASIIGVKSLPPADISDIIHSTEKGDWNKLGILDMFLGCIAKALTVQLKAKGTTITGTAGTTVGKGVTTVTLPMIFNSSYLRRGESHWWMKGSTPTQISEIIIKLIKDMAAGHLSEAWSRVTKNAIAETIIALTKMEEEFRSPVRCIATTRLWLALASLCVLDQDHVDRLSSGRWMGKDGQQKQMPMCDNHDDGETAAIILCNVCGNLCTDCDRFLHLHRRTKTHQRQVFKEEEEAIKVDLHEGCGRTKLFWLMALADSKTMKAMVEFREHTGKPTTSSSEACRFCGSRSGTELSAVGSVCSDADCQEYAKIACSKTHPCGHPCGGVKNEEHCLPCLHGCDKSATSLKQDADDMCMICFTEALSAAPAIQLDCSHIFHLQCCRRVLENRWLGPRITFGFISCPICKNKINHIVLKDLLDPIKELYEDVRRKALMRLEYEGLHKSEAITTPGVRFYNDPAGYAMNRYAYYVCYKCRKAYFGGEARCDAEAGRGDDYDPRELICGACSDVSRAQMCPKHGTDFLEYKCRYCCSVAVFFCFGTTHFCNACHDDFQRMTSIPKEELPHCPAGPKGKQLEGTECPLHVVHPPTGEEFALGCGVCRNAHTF
UniProt O60508: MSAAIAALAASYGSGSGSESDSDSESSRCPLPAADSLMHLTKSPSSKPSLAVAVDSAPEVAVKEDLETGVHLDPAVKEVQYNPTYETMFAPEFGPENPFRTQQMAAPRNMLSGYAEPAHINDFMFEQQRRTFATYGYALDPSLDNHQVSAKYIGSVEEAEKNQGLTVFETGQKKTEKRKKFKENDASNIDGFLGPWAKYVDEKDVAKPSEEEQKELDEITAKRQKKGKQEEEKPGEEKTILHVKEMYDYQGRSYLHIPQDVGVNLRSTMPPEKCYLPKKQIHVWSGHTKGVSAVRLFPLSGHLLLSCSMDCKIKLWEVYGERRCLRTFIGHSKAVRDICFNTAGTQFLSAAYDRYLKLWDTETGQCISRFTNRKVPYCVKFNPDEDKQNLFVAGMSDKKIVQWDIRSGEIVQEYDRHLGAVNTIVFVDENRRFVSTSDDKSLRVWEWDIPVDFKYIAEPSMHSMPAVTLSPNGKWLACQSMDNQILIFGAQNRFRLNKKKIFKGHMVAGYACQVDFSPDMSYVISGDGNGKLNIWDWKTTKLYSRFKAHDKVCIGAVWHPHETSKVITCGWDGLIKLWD
UniProt O75629: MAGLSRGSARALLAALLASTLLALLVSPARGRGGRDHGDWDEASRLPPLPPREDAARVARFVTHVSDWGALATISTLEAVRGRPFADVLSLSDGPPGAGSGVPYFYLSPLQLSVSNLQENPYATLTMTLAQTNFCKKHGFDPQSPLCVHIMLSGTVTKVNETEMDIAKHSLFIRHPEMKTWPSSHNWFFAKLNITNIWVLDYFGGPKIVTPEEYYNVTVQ
UniProt O43502: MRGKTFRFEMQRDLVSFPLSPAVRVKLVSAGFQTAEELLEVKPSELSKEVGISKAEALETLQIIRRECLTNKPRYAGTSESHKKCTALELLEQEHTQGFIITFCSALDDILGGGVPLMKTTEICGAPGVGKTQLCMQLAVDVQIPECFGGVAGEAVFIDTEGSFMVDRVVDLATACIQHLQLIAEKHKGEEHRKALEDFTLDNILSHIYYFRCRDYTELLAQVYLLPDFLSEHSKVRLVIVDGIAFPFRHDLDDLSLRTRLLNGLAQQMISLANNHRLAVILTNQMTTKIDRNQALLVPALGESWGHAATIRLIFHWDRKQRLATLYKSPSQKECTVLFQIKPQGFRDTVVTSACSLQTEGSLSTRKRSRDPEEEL
UniProt O43823: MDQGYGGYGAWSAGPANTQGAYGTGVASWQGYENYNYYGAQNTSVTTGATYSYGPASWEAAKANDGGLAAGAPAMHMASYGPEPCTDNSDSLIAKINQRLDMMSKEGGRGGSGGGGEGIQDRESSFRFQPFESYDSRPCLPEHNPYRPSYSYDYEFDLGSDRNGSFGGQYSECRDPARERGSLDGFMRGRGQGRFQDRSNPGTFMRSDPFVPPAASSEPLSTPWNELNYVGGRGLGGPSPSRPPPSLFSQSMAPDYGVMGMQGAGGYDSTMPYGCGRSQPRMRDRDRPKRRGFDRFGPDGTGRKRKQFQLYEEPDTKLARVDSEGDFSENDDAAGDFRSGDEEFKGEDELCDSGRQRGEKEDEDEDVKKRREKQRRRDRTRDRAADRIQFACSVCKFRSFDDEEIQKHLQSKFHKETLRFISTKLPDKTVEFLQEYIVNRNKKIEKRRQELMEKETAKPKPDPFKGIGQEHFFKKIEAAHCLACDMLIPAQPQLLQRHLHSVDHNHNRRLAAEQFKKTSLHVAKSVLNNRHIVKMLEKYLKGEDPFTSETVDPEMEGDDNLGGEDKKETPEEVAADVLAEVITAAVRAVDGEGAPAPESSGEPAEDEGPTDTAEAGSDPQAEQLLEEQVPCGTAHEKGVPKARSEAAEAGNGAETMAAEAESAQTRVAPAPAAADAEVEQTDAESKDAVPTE

The list shows a part of the results. This is a noisy data set.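 Tm was set to 64 °C where no melting was found, and many curves are irregular.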

In the supplement of paper PMC12595434, “Development of retinoid nuclear receptor pathway antagonists through targeting aldehyde dehydrogenase 1A3” (iScience, 2025) one finds melting temperature shift data, which are given here for 58 targets.

In the case of PLXNA2 (UniProt O75051), the melting temperature shift is -1.94 °C (MBE1 concentration: 100 nM) and -0.226 °C (MBE1 concentration: 1 uM).
The like results for BUB1 (UniProt O43683) were, in that order, -1.52 °C and -0.98 °C.
As for MYCBP2 (UniProt O75592), the melting temperature shift is, setting by setting: (MBE1 concentration: 100 nM) 0.598 °C; (MBE1 concentration: 1 uM) 0.104 °C.
For SH3BGRL (UniProt O75368) the same measures were -0.161 °C and 0.148 °C.
The like results for UniProt O43909 were, in that order, -0.215 °C and -0.342 °C.
The like results for TBL1X (UniProt O60907) were, in that order, 1.65 °C and -2.23 °C.
As for MED6 (UniProt O75586), the melting temperature shift (MBE1 concentration: 100 nM) is -1.01 °C and the melting temperature shift (MBE1 concentration: 1 uM) amounted to 0.281 °C.
Regarding ATP6V1G1 (UniProt O75348), the melting temperature shift was -3.64 °C (MBE1 concentration: 100 nM) and -5.55 °C (MBE1 concentration: 1 uM).
For PRPF3 (UniProt O43395) the same measures were -0.339 °C and -0.616 °C.
The like results for HMMR (UniProt O75330) were, in that order, -1.44 °C and 0.568 °C.
With DNAJB6 (UniProt O75190), the melting temperature shift by setting is: (MBE1 concentration: 100 nM) -1.57 °C; (MBE1 concentration: 1 uM) -1.22 °C.
For COQ9 (UniProt O75208) the same measures were -2.49 °C and 0.397 °C.
The like results for UniProt O60220 were, in that order, -1.25 °C and -3.62 °C.
For CDC40 (UniProt O60508) the same measures were -0.127 °C and 0.436 °C.
In the case of SORBS3 (UniProt O60504), the melting temperature shift is 0.714 °C (MBE1 concentration: 100 nM) and 0.605 °C (MBE1 concentration: 1 uM).
The like results for UniProt O60237 were, in that order, -1.22 °C and -1.72 °C.
For SRGAP2 (UniProt O75044) the same measures were 1.21 °C and 0.299 °C.
For OBSL1 (UniProt O75147), the melting temperature shift reads like this: (MBE1 concentration: 100 nM) -0.794 °C; (MBE1 concentration: 1 uM) -0.442 °C.
Take DPM1 (UniProt O60762): the melting temperature shift is, setting by setting: (MBE1 concentration: 100 nM) -1.06 °C; (MBE1 concentration: 1 uM) -1.19 °C.
As to UniProt O75629, the melting temperature shift runs as follows: (MBE1 concentration: 100 nM) -0.932 °C; (MBE1 concentration: 1 uM) 1.36 °C.
For FADS1 (UniProt O60427) the same measures were 0.36 °C and -0.281 °C.
For UniProt O43502 the same measures were -0.64 °C and -0.0183 °C.
For UniProt O75140 the same measures were -0.148 °C and 1.15 °C.
Turning to SLC25A17 (UniProt O43808), the melting temperature shift (MBE1 concentration: 100 nM) was -0.853 °C and the melting temperature shift (MBE1 concentration: 1 uM) was -1.24 °C.
The like results for UniProt O60318 were, in that order, -0.455 °C and -0.25 °C.
For UniProt O75145 the same measures were -2.95 °C and 15.8 °C.
The like results for MRPS14 (UniProt O60783) were, in that order, -0.189 °C and 0.626 °C.
As for HTATSF1 (UniProt O43719), the melting temperature shift by setting is: (MBE1 concentration: 100 nM) -0.173 °C; (MBE1 concentration: 1 uM) -0.43 °C.
The like results for PALM (UniProt O75781) were, in that order, -2.52 °C and 0.434 °C.
The like results for UniProt O75575 were, in that order, -0.659 °C and 0.177 °C.
The like results for CS (UniProt O75390) were, in that order, -0.423 °C and 0.181 °C.
Take STX6 (UniProt O43752): the melting temperature shift is, setting by setting: (MBE1 concentration: 100 nM) -1.12 °C; (MBE1 concentration: 1 uM) -0.704 °C.
For MGEA5 (UniProt O60502) the same measures were -0.49 °C and -0.153 °C.
For AKR7A2 (UniProt O43488) the same measures were -0.0537 °C and 0.0604 °C.
For IGSF3 (UniProt O75054) the same measures were -1.94 °C and 0.724 °C.
With ANKRD17 (UniProt O75179), the melting temperature shift by setting is: (MBE1 concentration: 100 nM) -1.05 °C; (MBE1 concentration: 1 uM) -0.0941 °C.
For TXNL1 (UniProt O43396) the same measures were 0.904 °C and 0.293 °C.
For UniProt O75529 the same measures were -0.484 °C and -0.179 °C.
For UniProt O43716 the same measures were 0.898 °C and 1.86 °C.
Regarding ECI2 (UniProt O75521), the melting temperature shift turned out to be 0.892 °C (MBE1 concentration: 100 nM) and 0.434 °C (MBE1 concentration: 1 uM).
The like results for CRTAP (UniProt O75718) were, in that order, 0.711 °C and 0.0268 °C.
For ZMPSTE24 (UniProt O75844) the same measures were -1.47 °C and -3.02 °C.
The like results for BUB3 (UniProt O43684) were, in that order, -1.46 °C and 0.121 °C.
AKAP8 (UniProt O43823): the melting temperature shift by setting is: (MBE1 concentration: 100 nM) -1.79 °C; (MBE1 concentration: 1 uM) -1.13 °C.
The like results for RNF40 (UniProt O75150) were, in that order, -0.186 °C and -0.218 °C.
For TRMU (UniProt O75648) the same measures were 1.15 °C and 0.403 °C.
As to VAMP4 (UniProt O75379), the melting temperature shift is -3.91 °C (MBE1 concentration: 100 nM) and 2.45 °C (MBE1 concentration: 1 uM).
The like results for ACSL4 (UniProt O60488) were, in that order, 0.696 °C and -0.00611 °C.
The like results for EIF3G (UniProt O75821) were, in that order, 0.605 °C and 0.434 °C.
The like results for WDR62 (UniProt O43379) were, in that order, -0.0423 °C and -0.686 °C.
Turning to PIP5K1C (UniProt O60331), the melting temperature shift stood at 1.65 °C (MBE1 concentration: 100 nM) and 0.598 °C (MBE1 concentration: 1 uM).
The like results for UniProt O60583 were, in that order, -2.54 °C and -0.978 °C.
For UniProt O60262 the same measures were 0.769 °C and -0.208 °C.
The like results for NCOR1 (UniProt O75376) were, in that order, -1.36 °C and -0.993 °C.
Consider PHLPP1 (UniProt O60346), for which the melting temperature shift by setting is: (MBE1 concentration: 100 nM) 0.114 °C; (MBE1 concentration: 1 uM) 1.15 °C.
The like results for AKAP10 (UniProt O43572) were, in that order, -0.236 °C and -0.6 °C.
As to HUS1 (UniProt O60921), the melting temperature shift by setting is: (MBE1 concentration: 100 nM) -1.68 °C; (MBE1 concentration: 1 uM) 1.69 °C.
The like results for PFKFB2 (UniProt O60825) were, in that order, -0.568 °C and 0.0977 °C.
